The list shows a part of the results. Repeats are few or missing, and single values can be far off.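 The apoptosis fraction was the count of cleaved-PARP antibody-stained nuclei relative to all DNA-stained nuclei, imaged in 1,536-well plates. Screening doses were set so most cells survived, and baseline and induced cleaved-PARP levels vary greatly across cell lines.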
Key:
Test in all cases: cleaved PARP positive nuclei fraction relative to DMSO control; melanoma cells; higher = more apoptosis
Settings in all cases: library dose: low library concentration; 72 h
[1] = system: 501Mel
[2] = system: A101D
[3] = system: A2058
[4] = system: C32
[5] = system: CBRC008 (line from a melanoma biopsy)
[6] = system: CBRC014 (line from a melanoma biopsy)
[7] = system: CBRC016 (line from a melanoma biopsy)
[8] = system: CBRC017 (line from a melanoma biopsy)

| Compound | cleaved PARP positive nuclei fraction [1] | cleaved PARP positive nuclei fraction [2] | cleaved PARP positive nuclei fraction [3] | cleaved PARP positive nuclei fraction [4] | cleaved PARP positive nuclei fraction [5] | cleaved PARP positive nuclei fraction [6] | cleaved PARP positive nuclei fraction [7] | cleaved PARP positive nuclei fraction [8] |
| --- | --- | --- | --- | --- | --- | --- | --- | --- |
| O=C(/C=C/c1cccnc1)NCCCCC1CCN(C(=O)c2ccccc2)CC1 + Oc1nc(-c2ccc(C(F)(F)F)cc2)nc2c1CSCC2 [XAV939] (first compound 0.01 µM, partner dose 2 µM) | 61.2% | 11.6% | 101% | 114% | 286% | 101% | 123% | 73.5% |
| Cc1cn(-c2cc(NC(=O)c3ccc(C)c(Nc4nccc(-c5cccnc5)n4)c3)cc(C(F)(F)F)c2)cn1 [nilotinib] + O=C(Nc1ccccc1)c1cc([N+](=O)[O-])ccc1Cl [GW9662] (first compound 0.2 µM, partner dose 2 µM) | 76.9% | 21.7% | 72.5% | 46.9% | 73.7% | 102% | 67.4% | 187% |
| O=C(/C=C/c1cccnc1)NCCCCC1CCN(C(=O)c2ccccc2)CC1 + Cc1cc([N+](=O)[O-])ccc1NS(=O)(=O)c1cc(Cl)ccc1Cl [FH535] (first compound 0.01 µM, partner dose 1 µM) | 71% | 29.1% | 21.6% | 55.6% | 622% | 130% | 1370% | 678% |
| Cc1cc(Nc2cc(N3CCN(C)CC3)nc(Sc3ccc(NC(=O)C4CC4)cc3)n2)n[nH]1 [Tozasertib] + N#Cc1c(O)c2c(-c3ccc(-c4ccccc4O)cc3)csc2[nH]c1=O [A769662] (first compound 0.006 µM, partner dose 2 µM) | 180% | 46.2% | 110% | 184% | 216% | 81.8% | 38.7% | 71.3% |
| CC[C@]1(O)C[C@H]2CN(CCc3c([nH]c4ccccc34)[C@@](C(=O)OC)(c3cc4c(cc3OC)N(C=O)[C@H]3[C@@](O)(C(=O)OC)[C@H](OC(C)=O)[C@]5(CC)C=CCN6CC[C@]43[C@@H]65)C2)C1 [vincristine] + CC(C)CCN1c2nc(Nc3cc(F)c(O)c(F)c3)ncc2N(C)C(=O)C1C [BID1870] (first compound 0.0001 µM, partner dose 0.2 µM) | 84.6% | 16.2% | 801% | 381% | 886% | 236% | 231% | 104% |
| O=C(/C=C/c1cccnc1)NCCCCC1CCN(C(=O)c2ccccc2)CC1 + Oc1cc(-c2nc(-c3ccccc3)[nH]c2-c2ccncc2)ccc1Cl [L779450] (first compound 0.01 µM, partner dose 0.2 µM) | 96.8% | 16.9% | 42.6% | 92.9% | 5050% | 112% | 502% | 634% |
| Cc1cc(Nc2cc(N3CCN(C)CC3)nc(Sc3ccc(NC(=O)C4CC4)cc3)n2)n[nH]1 [Tozasertib] + O=C(Nc1ccccc1)c1cc([N+](=O)[O-])ccc1Cl [GW9662] (first compound 0.006 µM, partner dose 2 µM) | 158% | 28.5% | 161% | 134% | 64.6% | 244% | 128% | 103% |
| CCCCCCCCCCCCCCCCCCOP(=O)([O-])OC1CC[N+](C)(C)CC1 [Perifosine] + CCN(CC)CCCCNc1ncc2cc(-c3cc(OC)cc(OC)c3)c(NC(=O)NC(C)(C)C)nc2n1 [PD173074] (first compound 0.4 µM, partner dose 0.1 µM) | 109% | 17.3% | 44.8% | 148% | 47.5% | 85.8% | 54.1% | 60.4% |
| Cc1ccc(Nc2nccc(N(C)c3ccc4c(C)n(C)nc4c3)n2)cc1S(N)(=O)=O [Pazopanib] + N#Cc1c(O)c2c(-c3ccc(-c4ccccc4O)cc3)csc2[nH]c1=O [A769662] (first compound 0.4 µM, partner dose 2 µM) | 58.5% | 9.11% | 74.5% | 69.8% | 113% | 98.5% | 75.7% | 64.4% |
| CCCCCCCCCCCCCCCCCCOP(=O)([O-])OC1CC[N+](C)(C)CC1 [Perifosine] + COc1cc(N2CCC(N3CCN(C)CC3)CC2)ccc1Nc1ncc(Cl)c(Nc2ccccc2S(=O)(=O)C(C)C)n1 [NVP-TAE684] (first compound 0.4 µM, partner dose 0.08 µM) | 88.7% | 27.3% | 246% | 157% | 221% | 91.8% | 71.4% | 113% |
| N#CC[C@H](C1CCCC1)n1cc(-c2ncnc3[nH]ccc23)cn1 [ruxolitinib] + O=C1NC(=O)/C(=C/c2ccc(-c3ccc(F)cc3O)o2)S1 [AS252424] (first compound 1 µM, partner dose 1 µM) | 168% | 4.17% | 373% | 206% | 108% | 169% | 88.8% | 103% |
| CC[C@]1(O)C[C@H]2CN(CCc3c([nH]c4ccccc34)[C@@](C(=O)OC)(c3cc4c(cc3OC)N(C=O)[C@H]3[C@@](O)(C(=O)OC)[C@H](OC(C)=O)[C@]5(CC)C=CCN6CC[C@]43[C@@H]65)C2)C1 [vincristine] + CCN(CC)CCCCNc1ncc2cc(-c3cc(OC)cc(OC)c3)c(NC(=O)NC(C)(C)C)nc2n1 [PD173074] (first compound 0.0001 µM, partner dose 0.1 µM) | 25.4% | 42.7% | 394% | 254% | 85.3% | 108% | 61.5% | 75.6% |
| N#CC[C@H](C1CCCC1)n1cc(-c2ncnc3[nH]ccc23)cn1 [ruxolitinib] + COc1ccc(-c2ccc3c(N4CCOCC4)nc(N4C[C@@H](C)O[C@@H](C)C4)nc3n2)cc1CO [KU0063794] (first compound 1 µM, partner dose 0.02 µM) | 131% | 25.2% | 45.1% | 113% | 118% | 114% | 20.8% | 84.6% |
| Cc1cc(Nc2cc(N3CCN(C)CC3)nc(Sc3ccc(NC(=O)C4CC4)cc3)n2)n[nH]1 [Tozasertib] + COc1cc(N2CCC(N3CCN(C)CC3)CC2)ccc1Nc1ncc(Cl)c(Nc2ccccc2S(=O)(=O)C(C)C)n1 [NVP-TAE684] (first compound 0.006 µM, partner dose 0.08 µM) | 45.4% | 40.5% | 40.9% | 41.8% | 70.4% | 84.6% | 33.6% | 62.7% |
| O=C(Nc1cc(C(F)(F)F)cc(C(F)(F)F)c1)c1cc(Cl)ccc1O + Oc1nc(-c2ccc(C(F)(F)F)cc2)nc2c1CSCC2 [XAV939] (first compound 0.016 µM, partner dose 2 µM) | 125% | 70.5% | 76.8% | 140% | 50.4% | 76.3% | 123% | 87.4% |
| N#CC[C@H](C1CCCC1)n1cc(-c2ncnc3[nH]ccc23)cn1 [ruxolitinib] + Oc1cc(-c2nc(-c3ccccc3)[nH]c2-c2ccncc2)ccc1Cl [L779450] (first compound 1 µM, partner dose 0.2 µM) | 84.9% | 22.5% | 77.9% | 76.1% | 28.9% | 98.7% | 64.6% | 80.6% |
| COc1cc([C@@H]2c3cc4c(cc3[C@@H](O[C@@H]3O[C@@H]5CO[C@@H](C)O[C@H]5[C@H](O)[C@H]3O)[C@H]3COC(=O)[C@H]23)OCO4)cc(OC)c1O [etoposide] + COc1ccc(-c2ccc3c(N4CCOCC4)nc(N4C[C@@H](C)O[C@@H](C)C4)nc3n2)cc1CO [KU0063794] (first compound 0.02 µM, partner dose 0.02 µM) | 65% | 28% | 156% | 59% | 408% | 96.3% | 69.2% | 98.4% |
| Cc1cn(-c2cc(NC(=O)c3ccc(C)c(Nc4nccc(-c5cccnc5)n4)c3)cc(C(F)(F)F)c2)cn1 [nilotinib] + CC(C)CCN1c2nc(Nc3cc(F)c(O)c(F)c3)ncc2N(C)C(=O)C1C [BID1870] (first compound 0.2 µM, partner dose 0.2 µM) | 73.4% | 24.3% | 107% | 52.2% | 155% | 102% | 83.9% | 94% |
| CC[C@]1(O)C[C@H]2CN(CCc3c([nH]c4ccccc34)[C@@](C(=O)OC)(c3cc4c(cc3OC)N(C=O)[C@H]3[C@@](O)(C(=O)OC)[C@H](OC(C)=O)[C@]5(CC)C=CCN6CC[C@]43[C@@H]65)C2)C1 [vincristine] + COc1cc(N2CCC(N3CCN(C)CC3)CC2)ccc1Nc1ncc(Cl)c(Nc2ccccc2S(=O)(=O)C(C)C)n1 [NVP-TAE684] (first compound 0.0001 µM, partner dose 0.08 µM) | 65% | 59.1% | 1700% | 155% | 288% | 218% | 68.3% | 104% |
| Cc1ccc(Nc2nccc(N(C)c3ccc4c(C)n(C)nc4c3)n2)cc1S(N)(=O)=O [Pazopanib] + O=C(Nc1ccccc1)c1cc([N+](=O)[O-])ccc1Cl [GW9662] (first compound 0.4 µM, partner dose 2 µM) | 152% | 22.5% | 56.1% | 144% | 69% | 93.4% | 81.1% | 120% |

Quoted from the listing:
cleaved PARP positive nuclei fraction [1], COc1cc([C@@H]2c3cc4c(cc3[C@@H](O[C@@H]3O[C@@H]5CO[C@@H](C)O[C@H]5[C@H](O)[C@H]3O)[C@H]3COC(=O)[C@H]23)OCO4)cc(OC)c1O [etoposide] + COc1ccc(-c2ccc3c(N4CCOCC4)nc(N4C[C@@H](C)O[C@@H](C)C4)nc3n2)cc1CO [KU0063794] (first compound 0.02 µM, partner dose 0.02 µM) is entered as 65%
cleaved PARP positive nuclei fraction [5], CCCCCCCCCCCCCCCCCCOP(=O)([O-])OC1CC[N+](C)(C)CC1 [Perifosine] + COc1cc(N2CCC(N3CCN(C)CC3)CC2)ccc1Nc1ncc(Cl)c(Nc2ccccc2S(=O)(=O)C(C)C)n1 [NVP-TAE684] (first compound 0.4 µM, partner dose 0.08 µM) is entered as 221%

From the supplement of paper PMC4604168 (melanoma cell lines)
